Results are given in words; binding and its absence hold for the method and conditions named. Binding seen in cells or lysates may run through a third protein. Binding can be weak; no strength is given.

By UniProt entry, the sequences of proteins in these tests, tags left out. Where a name states a change or a piece, a line headed by the entry shows the natural chain unless it says otherwise.
UniProt P61956: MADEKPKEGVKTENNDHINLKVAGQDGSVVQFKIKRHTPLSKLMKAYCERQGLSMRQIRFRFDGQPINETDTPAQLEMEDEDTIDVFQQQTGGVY
UniProt P54252: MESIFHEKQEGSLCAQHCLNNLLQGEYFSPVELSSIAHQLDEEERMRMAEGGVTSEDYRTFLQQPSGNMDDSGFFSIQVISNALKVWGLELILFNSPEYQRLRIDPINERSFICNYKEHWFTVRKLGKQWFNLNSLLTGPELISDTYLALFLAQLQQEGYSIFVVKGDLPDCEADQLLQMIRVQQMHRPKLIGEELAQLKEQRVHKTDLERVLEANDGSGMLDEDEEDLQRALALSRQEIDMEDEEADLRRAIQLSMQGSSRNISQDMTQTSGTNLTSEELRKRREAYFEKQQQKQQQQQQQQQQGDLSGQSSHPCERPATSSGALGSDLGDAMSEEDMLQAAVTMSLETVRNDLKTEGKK

In this test the target is recombinant SUMO2 immobilized on agarose beads (UniProt P61956). Kind of test: pull-down; recombinant SUMO1 or SUMO2 immobilized on agarose beads incubated with cleared cell lysates (cells with or without 10 ug/ml bleomycin, 1 h) for 2 h at 4°C; EBC buffer (50 mM Tris pH 7.5, 150 mM NaCl, 1 mM EDTA, 1 mM DTT) with 0.5% NP-40 and benzonase; immunoblot; only the target purified. (In general: A western blot detects proteins with antibodies after separation by electrophoresis.)

As for “endogenous ataxin‐3 (from UniProt P54252 1-361) (enzyme)”, the binding result is recorded as “binds weakly”.
